Sequences and labels used below:
T1: DDR2 antigen overexpressed on cells (UniProt Q16832)
T1 sequence (looked up): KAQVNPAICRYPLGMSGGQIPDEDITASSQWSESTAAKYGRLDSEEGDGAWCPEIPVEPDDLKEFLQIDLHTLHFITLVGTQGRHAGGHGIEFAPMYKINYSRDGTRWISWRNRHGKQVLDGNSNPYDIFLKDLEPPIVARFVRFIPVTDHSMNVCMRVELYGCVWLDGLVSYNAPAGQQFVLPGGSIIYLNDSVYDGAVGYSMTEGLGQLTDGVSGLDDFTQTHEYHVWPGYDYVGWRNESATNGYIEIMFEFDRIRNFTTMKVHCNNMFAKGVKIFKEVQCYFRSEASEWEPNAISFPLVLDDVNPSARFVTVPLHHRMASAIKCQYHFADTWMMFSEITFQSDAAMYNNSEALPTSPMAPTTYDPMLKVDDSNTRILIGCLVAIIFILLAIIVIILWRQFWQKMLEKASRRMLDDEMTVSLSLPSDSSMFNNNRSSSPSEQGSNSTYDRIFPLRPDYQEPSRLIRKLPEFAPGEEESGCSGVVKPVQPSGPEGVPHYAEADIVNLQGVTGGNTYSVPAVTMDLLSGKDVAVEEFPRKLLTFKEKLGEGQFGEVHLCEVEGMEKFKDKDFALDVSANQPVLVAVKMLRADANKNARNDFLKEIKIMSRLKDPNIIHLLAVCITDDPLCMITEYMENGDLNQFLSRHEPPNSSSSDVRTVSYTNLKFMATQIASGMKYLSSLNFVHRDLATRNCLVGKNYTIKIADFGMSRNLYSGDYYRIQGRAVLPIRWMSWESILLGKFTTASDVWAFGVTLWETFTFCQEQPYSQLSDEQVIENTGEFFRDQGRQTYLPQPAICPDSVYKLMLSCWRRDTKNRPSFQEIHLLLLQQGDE

T2: human DDR2 extracellular segment (human, UniProt Q16832 22-399)
T2 construct: range 22-399; In BLI it carried a His tag (printed 'Hig tag') and was captured on Ni-NTA; also called extracellular segment of DDR2 antigen; extracellular segment protein of DDR2 antigen
T2 sequence (looked up): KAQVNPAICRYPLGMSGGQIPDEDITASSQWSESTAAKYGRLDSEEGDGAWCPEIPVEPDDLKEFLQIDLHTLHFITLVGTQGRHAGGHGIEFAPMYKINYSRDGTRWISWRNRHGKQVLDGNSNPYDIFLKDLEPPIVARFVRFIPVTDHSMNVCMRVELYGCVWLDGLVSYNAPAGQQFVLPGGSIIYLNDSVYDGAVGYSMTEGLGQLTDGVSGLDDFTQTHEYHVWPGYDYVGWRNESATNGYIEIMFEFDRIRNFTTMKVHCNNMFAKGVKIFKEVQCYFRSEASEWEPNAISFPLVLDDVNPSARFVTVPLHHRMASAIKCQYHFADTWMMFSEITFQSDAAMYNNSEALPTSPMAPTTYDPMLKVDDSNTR

B1: ICG labeled DDR2 nano-antibody 1A12 (VHH)
VHH: EVQLVESGGGLVQPGGSLRLSCAASGYILSPNVMGWFRQAPGKGRELVAAISWGDGRTYYPDSVEGRFTISRDNAKRMVYLQMNSLRAEDTAVYYCAASRKGYPSTRSDPYNYWGQGTQVTVSS
modifications: indocyanine green (ICG) coupled with ICG-NHS; sites not stated
notes: also called ICG labeled 1A12 nano-antibody; Nb-DDR2 labeled with indocyanine green
B2: anti-DDR2 nano-antibody 1A1 (VHH)
VHH: B1 VHH with Y27R, L29F, P31I, S52N, W53T, G54R, D55G, R57S, N112D
notes: Expressed in E. coli BL21(DE3); also called 1A1-VHH
B3: anti-DDR2 nano-antibody 1A12 (VHH)
VHH: B1 VHH
notes: also called 1A12-VHH; DDR2 antibody 1A12
B4: anti-DDR2 nano-antibody 1A5 (VHH)
VHH: EVQLVESGGGLVQPGGSLRLSCAASGITLSLYIMGWFRQAPGKGRELVAAISRTGGSTYYPDSVEGRFTISRDNAKRMVYLQMNSLRAEDTAVYYCAADFYGNATLGYNYWGQGTQVTVSS
notes: also called 1A5-VHH
B5: anti-DDR2 nano-antibody 1B2 (VHH)
VHH: EVQLVESGGGLVQPGGSLRLSCAASGYIFSIYAMGWFRQAPGKGRELVARISWGDGSTWYPDSVEGRFTISRDNAKRMVYLQMNSLRAEDTAVYYCAAAIKGRGVVTQLGYNYWGQGTQVTVSS
notes: also called 1B2-VHH
B6: anti-DDR2 nano-antibody 1B3 (VHH)
VHH: B4 VHH with I27D, L29F, L31Y, I33V, F100P, G102I, N103S, A104G
notes: also called 1B3-VHH

Positions count from the first letter of the chain named. Results are given in words; binding and its absence hold for the method and conditions named. Some binding calls cover weakened binding; strength is not graded here.

From patent US20260167727A1 (FIBRO BIOMED TECHNOLOGY GUANGZHOU, published 2026) come the findings set out here.

The target of the first experiment is pig DDR2 in lung tissue (pig). Briefly: near-infrared imaging of bleomycin-induced pig lung tissue slices stained with ICG labeled 1A12.
Regarding B1, the binding result was “binds”.

The target of another experiment is T1, DDR2 antigen overexpressed on cells. Briefly: immunofluorescence on fixed cells overexpressing DDR2, anti-His AF488 secondary, DAPI.
B2: the binding result was “binds”.
On the same count and under the same terms, the same measure for B3: “binds”; for B4: “binds”.

A further experiment shares this target. Briefly: flow cytometry on A549 cells overexpressing DDR2, His-tagged nano-antibody, anti-His-AF488 secondary. On the technique in general: Flow cytometry measures light scatter and fluorescence of single cells or particles in a stream.
Take B5: the binding result is “binds”.
For the molecule B2, the binding result is “binds”.
On the same count and under the same terms, with B3 the entry was “binds”.

The next experiment concerns the target T2, human DDR2 extracellular segment. Briefly: BLI (ForteBio), His-tagged DDR2 extracellular segment on Ni-NTA sensor, nano-antibody in solution.
As for B5, the binding result is recorded as “binds”.
Same read-out and setting: the same measure for B2: “binds”; for B3: “binds”; for B4: “binds”.
The same measure, in the same setting: the same measure for B6: “binds”.

The target in a further experiment is T1, DDR2 antigen overexpressed on cells. Briefly: flow cytometry, A549 cells infected with adenovirus overexpressing DDR2, His-tagged nano-antibody, Anti-His-AF488.
Take B5: the binding result is listed as “binds”.
For B2, the binding result is given as “binds”.
Same read-out and setting: with B3 the entry was “binds”; with B4, “binds”; with B6, “binds”.

The target of another experiment is T2, human DDR2 extracellular segment. Kind of experiment: ELISA at one antibody amount, wells coated with antigen-DDR2 or BSA, OD450. For orientation: ELISA stands for enzyme-linked immunosorbent assay.
Consider B5, for which the binding result is listed as “binds”.
Same read-out and setting: the same measure for B2: “binds”.
On the same count and under the same terms, with B3 the entry was “binds”; with B4, “binds”; with B6, “binds”.

A further experiment shares this target. Kind of experiment: ELISA, DDR2 extracellular segment coated 100 ng/well, Flag-tagged nano-antibody 200 ng/well, anti-Flag detection.
Take B5: the binding entry is “binds”.
Still for that read-out and setting: the same measure for B2: “binds”.
On the same count and under the same terms, the same measure for B3: “binds”; for B4: “binds”.
Turning to B6, the binding result is reported as “binds”.

For the next experiment, the target named is pig DDR2 in lung tissue (pig). Kind of experiment: near-infrared imaging of pig lung tissue slices induced with bleomycin and stained with ICG labeled 1A12.
As to B1, the binding entry is “binds”.

For the next experiment, the target named is T1, DDR2 antigen overexpressed on cells. Briefly: immunofluorescence on fixed cells overexpressing DDR2, Anti His AF488 secondary antibody.
With B5, the binding result is listed as “binds”.
For B2, the binding entry is on record as “binds”.
The same measure, in the same setting: with B3 the entry was “binds”; with B4, “binds”.
Regarding B6, the binding entry is “binds”.

Another experiment addresses T2, human DDR2 extracellular segment. Briefly: ELISA, DDR2 extracellular segment coated, Flag-tagged nano-antibody.
Regarding B5, the binding entry is reported as “binds”.
The same measure, in the same setting: the same measure for B2: “binds”.
For B3, the binding result is given as “binds”.
On the same count and under the same terms, with B4 the entry was “binds”; with B6, “binds”.

A further experiment shares this target. Kind of experiment: ELISA, plate coated with DDR2 extracellular segment, Flag-tagged nano-antibody titrated, anti-Flag then HRP secondary, TMB, OD450.
As to B5, the binding entry is “binds”.
For B2, the binding entry was “binds”.
Same read-out and setting: the same measure for B3: “binds”.
As to B4, the binding result is given as “binds”.
For the molecule B6, the binding entry is listed as “binds”.
